The other results are listed elsewhere or left out.
What was measured:
Test in all cases: log2 fold change, soluble protein after heating vs DMSO (PISA); higher = thermal stabilisation; K562 cells, 10 uM, 30 min; active = over 0.2 and 3.5 SD of the protein, either way, in both replicates (recomputed)
[1] = compound: CS(=O)(=O)c1ccc(-c2cnc(N)c(C(=O)Nc3ccccc3)n2)cc1
In short: (§1)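 K562 cells at 2×10^6 cells/mL were exposed to 10 μM compound for 30 min, then aliquots were heated for 3 min across 48°C-58°C, pooled, and extracted in PBS containing 0.5% NP-40 at 4°C. The supernatant after 21,000xg for 90 min was taken as soluble protein and measured by TMTpro 16plex LC-MS/MS with channel sums equalised. Thermal stability is reported relative to control samples, with values from duplicates. Fold changes are given on a log2 scale.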

Amino acid sequences for entries named in this document (tags omitted). A change or cut given only in a name is not applied to a line headed by its entry.
UniProt Q92785, whole entry, looked up: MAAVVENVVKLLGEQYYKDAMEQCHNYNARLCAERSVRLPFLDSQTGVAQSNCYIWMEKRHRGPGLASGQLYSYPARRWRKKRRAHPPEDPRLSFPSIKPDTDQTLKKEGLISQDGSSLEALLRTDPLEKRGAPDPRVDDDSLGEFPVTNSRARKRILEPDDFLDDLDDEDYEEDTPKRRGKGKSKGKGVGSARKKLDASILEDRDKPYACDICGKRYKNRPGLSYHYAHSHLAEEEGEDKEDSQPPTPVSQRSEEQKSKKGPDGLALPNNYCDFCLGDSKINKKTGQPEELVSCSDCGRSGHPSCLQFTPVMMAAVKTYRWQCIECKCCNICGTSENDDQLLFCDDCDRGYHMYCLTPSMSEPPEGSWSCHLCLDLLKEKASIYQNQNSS
UniProt O00559: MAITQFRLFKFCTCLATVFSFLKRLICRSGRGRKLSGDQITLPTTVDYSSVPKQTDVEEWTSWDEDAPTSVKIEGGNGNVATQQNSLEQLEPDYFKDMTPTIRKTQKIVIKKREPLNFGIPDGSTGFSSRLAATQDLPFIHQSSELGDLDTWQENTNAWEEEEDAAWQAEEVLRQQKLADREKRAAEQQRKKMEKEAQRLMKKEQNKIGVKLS
UniProt P51452: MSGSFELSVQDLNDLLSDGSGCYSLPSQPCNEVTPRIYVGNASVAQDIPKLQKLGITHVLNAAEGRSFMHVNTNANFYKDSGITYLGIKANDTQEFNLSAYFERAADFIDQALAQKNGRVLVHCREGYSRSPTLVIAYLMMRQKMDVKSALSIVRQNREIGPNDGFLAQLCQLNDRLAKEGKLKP
UniProt Q9UNI6, whole entry, looked up: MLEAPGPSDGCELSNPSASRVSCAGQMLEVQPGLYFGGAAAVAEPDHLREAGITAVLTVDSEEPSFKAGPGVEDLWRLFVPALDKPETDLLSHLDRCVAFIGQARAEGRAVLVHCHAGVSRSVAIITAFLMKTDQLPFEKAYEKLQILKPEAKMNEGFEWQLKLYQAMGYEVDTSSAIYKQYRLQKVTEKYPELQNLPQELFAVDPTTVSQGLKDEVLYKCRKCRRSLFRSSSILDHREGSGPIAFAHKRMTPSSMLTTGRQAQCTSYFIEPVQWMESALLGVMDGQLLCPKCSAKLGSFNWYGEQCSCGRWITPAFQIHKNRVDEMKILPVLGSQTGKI
UniProt Q9UDY4: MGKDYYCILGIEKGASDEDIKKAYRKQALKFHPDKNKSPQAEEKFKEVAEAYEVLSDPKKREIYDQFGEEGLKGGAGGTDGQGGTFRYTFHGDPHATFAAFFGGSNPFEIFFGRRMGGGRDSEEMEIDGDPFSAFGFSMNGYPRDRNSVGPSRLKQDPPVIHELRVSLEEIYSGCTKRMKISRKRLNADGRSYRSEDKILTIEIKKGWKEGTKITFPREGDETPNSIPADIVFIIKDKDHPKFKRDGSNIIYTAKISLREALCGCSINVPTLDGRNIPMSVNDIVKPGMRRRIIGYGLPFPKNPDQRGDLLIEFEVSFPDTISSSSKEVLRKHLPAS
UniProt Q9NTX5: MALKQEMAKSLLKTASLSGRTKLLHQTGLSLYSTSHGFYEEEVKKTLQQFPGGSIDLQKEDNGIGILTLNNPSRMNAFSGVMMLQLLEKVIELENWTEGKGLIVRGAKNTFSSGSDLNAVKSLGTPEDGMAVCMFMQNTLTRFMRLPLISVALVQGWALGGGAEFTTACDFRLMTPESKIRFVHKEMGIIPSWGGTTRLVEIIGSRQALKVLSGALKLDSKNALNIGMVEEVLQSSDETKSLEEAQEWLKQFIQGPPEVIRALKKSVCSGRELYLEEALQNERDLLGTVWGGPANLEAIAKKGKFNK
UniProt Q9H3H5: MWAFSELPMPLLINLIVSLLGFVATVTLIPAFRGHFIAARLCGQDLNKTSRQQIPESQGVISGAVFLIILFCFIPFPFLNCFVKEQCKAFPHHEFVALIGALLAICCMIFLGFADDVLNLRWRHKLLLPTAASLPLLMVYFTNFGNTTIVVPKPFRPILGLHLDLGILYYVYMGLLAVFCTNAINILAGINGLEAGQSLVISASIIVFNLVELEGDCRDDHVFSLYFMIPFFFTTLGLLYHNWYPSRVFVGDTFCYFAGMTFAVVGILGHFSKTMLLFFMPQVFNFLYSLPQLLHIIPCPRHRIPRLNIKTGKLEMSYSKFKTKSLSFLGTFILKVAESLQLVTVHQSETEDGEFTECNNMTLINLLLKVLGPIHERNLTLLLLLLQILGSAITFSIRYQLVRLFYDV
UniProt Q6ZPD9: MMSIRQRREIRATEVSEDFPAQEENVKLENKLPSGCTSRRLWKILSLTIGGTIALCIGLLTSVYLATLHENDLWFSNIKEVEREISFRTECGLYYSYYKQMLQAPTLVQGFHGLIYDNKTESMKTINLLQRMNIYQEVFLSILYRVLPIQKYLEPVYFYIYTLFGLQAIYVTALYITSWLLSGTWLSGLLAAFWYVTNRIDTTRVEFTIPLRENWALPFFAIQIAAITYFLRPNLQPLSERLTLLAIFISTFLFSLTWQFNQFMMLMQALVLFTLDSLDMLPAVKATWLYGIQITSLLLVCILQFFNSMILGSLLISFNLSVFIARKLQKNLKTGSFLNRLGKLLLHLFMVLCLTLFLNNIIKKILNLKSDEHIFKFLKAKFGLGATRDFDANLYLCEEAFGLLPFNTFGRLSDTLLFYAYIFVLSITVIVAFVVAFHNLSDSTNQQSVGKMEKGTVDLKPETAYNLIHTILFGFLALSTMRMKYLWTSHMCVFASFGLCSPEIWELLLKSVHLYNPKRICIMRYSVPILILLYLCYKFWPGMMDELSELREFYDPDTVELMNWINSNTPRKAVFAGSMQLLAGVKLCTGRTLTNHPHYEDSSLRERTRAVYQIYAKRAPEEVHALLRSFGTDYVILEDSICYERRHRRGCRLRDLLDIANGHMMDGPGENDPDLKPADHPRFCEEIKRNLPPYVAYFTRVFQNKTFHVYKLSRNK
UniProt O43598: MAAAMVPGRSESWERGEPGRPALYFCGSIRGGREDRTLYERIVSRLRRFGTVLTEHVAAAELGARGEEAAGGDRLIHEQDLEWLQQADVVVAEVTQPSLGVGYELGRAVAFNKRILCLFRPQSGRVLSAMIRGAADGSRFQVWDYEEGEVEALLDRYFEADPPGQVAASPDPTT
UniProt P60981: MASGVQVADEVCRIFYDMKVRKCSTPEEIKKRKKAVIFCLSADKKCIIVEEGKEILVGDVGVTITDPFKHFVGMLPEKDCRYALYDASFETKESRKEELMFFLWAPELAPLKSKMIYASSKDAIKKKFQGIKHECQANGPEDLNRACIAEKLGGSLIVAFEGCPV
UniProt Q9BZ29: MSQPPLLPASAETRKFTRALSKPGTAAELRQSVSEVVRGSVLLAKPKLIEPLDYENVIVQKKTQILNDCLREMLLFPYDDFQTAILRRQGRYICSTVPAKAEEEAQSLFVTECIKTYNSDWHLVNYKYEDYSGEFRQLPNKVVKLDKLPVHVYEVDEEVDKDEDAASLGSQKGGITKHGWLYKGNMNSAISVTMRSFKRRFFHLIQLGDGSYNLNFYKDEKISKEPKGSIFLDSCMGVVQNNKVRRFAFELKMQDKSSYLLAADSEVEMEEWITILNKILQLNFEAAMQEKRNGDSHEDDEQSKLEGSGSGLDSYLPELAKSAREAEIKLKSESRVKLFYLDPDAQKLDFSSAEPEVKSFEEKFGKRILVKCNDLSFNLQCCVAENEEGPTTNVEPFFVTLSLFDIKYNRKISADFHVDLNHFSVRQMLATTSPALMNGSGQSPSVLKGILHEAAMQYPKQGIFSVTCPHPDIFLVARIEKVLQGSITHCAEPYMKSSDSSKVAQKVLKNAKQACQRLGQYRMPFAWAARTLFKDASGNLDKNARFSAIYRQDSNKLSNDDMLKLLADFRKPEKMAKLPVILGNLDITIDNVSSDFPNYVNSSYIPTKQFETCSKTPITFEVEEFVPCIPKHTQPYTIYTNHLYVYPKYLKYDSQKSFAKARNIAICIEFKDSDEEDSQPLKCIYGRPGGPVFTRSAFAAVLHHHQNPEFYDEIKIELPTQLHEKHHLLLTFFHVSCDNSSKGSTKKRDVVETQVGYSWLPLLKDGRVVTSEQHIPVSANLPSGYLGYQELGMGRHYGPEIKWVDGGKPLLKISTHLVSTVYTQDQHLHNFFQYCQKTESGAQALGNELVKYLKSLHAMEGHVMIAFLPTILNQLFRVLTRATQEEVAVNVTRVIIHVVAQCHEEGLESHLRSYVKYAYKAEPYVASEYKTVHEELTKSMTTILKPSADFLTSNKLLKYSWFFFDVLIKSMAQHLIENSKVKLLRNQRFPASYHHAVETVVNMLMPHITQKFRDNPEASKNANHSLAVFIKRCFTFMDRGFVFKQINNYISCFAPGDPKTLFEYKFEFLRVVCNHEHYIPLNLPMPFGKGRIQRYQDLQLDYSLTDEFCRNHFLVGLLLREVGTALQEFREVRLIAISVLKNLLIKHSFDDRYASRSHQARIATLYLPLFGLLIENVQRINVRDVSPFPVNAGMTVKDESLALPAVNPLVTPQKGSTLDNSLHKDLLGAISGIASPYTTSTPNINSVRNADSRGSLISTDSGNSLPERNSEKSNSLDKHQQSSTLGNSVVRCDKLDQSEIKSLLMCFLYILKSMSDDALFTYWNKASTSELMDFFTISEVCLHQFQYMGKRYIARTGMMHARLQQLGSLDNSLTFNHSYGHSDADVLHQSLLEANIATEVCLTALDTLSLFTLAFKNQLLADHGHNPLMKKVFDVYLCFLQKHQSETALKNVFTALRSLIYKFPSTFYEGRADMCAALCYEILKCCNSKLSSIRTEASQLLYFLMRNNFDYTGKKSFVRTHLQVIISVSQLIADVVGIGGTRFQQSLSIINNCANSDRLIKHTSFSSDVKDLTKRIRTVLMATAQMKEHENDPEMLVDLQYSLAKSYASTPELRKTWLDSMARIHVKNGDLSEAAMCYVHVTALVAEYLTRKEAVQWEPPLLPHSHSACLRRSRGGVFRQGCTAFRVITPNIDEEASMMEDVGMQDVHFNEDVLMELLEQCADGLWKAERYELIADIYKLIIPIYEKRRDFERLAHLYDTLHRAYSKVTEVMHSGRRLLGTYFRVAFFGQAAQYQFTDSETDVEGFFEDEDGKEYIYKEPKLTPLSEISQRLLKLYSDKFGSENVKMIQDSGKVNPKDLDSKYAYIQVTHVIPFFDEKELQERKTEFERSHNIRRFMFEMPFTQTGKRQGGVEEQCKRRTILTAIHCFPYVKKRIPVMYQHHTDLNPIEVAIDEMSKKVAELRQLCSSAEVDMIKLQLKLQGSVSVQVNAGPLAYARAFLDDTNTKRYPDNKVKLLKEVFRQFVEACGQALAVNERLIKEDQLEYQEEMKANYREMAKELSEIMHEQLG
UniProt Q9UBS4: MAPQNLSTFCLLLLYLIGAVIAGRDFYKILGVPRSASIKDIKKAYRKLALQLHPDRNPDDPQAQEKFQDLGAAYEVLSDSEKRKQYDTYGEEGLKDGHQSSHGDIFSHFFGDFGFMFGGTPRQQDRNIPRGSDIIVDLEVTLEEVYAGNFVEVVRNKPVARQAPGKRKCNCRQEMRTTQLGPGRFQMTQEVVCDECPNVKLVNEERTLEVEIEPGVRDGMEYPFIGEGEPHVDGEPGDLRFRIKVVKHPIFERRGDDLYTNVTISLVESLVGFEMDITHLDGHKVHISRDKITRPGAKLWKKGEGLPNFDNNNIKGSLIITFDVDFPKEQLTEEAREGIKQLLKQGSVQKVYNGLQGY
UniProt Q01658: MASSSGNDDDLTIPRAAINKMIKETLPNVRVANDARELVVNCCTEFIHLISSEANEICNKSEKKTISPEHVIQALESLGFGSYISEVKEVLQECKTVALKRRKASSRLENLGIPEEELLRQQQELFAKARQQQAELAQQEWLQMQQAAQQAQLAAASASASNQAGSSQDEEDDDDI
UniProt P63167, whole entry, looked up: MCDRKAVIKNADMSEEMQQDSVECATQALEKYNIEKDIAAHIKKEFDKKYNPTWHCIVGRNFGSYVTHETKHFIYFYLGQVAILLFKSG
UniProt O95620: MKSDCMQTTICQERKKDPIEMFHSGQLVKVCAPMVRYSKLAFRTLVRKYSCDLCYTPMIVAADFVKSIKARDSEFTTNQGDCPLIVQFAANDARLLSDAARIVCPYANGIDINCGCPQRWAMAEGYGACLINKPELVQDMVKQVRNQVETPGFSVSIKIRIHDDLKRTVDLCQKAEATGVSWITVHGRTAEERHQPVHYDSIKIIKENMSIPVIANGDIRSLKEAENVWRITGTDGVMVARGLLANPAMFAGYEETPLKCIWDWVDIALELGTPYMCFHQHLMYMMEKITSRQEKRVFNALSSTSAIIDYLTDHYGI

crizotinib = compound: C[C@@H](Oc1cc(-c2cnn(C3CCNCC3)c2)cnc1N)c1c(Cl)ccc(F)c1Cl [crizotinib]
In short: as §1

[2] = compound: C[C@@H]1COCCN1C2=NC(=NC(=C2)C3(CC3)S(=O)(=O)C)C4=C5C=CNC5=CC=C4
In short: as §1

[3] = compound: C[C@H](C1=CC=C(C=C1)C(=O)NC2=C3C=CNC3=NC=C2)N
In short: as §1

duvelisib = compound: C[C@H](Nc1ncnc2nc[nH]c12)c1cc2cccc(Cl)c2c(=O)n1-c1ccccc1 [duvelisib]
In short: as §1

gandotinib = compound: Cc1cc(Nc2cc(CN3CCOCC3)c3nc(C)c(Cc4ccc(Cl)cc4F)n3n2)n[nH]1 [gandotinib]
In short: as §1

tozasertib = compound: Cc1cc(Nc2cc(N3CCN(C)CC3)nc(Sc3ccc(NC(=O)C4CC4)cc3)n2)n[nH]1 [tozasertib]
In short: as §1

[4] = compound: Cc1cc(SCc2sc(-c3ccc(C(F)(F)F)cc3)nc2C)ccc1OCC(=O)O
In short: as §1

doramapimod = compound: Cc1ccc(-n2nc(C(C)(C)C)cc2NC(=O)Nc2ccc(OCCN3CCOCC3)c3ccccc23)cc1 [doramapimod]
In short: as §1

ispinesib = compound: Cc1ccc(C(=O)N(CCCN)[C@@H](c2nc3cc(Cl)ccc3c(=O)n2Cc2ccccc2)C(C)C)cc1 [ispinesib]
In short: as §1

bafetinib = compound: Cc1ccc(NC(=O)c2ccc(CN3CC[C@H](N(C)C)C3)c(C(F)(F)F)c2)cc1Nc1nccc(-c2cncnc2)n1 [bafetinib]
In short: as §1

[5] = compound: Cc1cccc(CC(=O)N2CCc3c2ccc(-c2cn(C)c4ncnc(N)c24)c3F)n1
In short: as §1

nilotinib = compound: Cc1cn(-c2cc(NC(=O)c3ccc(C)c(Nc4nccc(-c5cccnc5)n4)c3)cc(C(F)(F)F)c2)cn1 [nilotinib]
In short: as §1

[6] = compound: Cc1nc(Nc2n[nH]c3c2CN(C(=O)N[C@H](CN(C)C)c2ccccc2)C3(C)C)c2sccc2n1
In short: as §1

dasatinib = compound: Cc1nc(Nc2ncc(C(=O)Nc3c(C)cccc3Cl)s2)cc(N2CCN(CCO)CC2)n1 [dasatinib]
In short: as §1

[7] = compound: Cc1ncc(-c2ccnc(Nc3ccc(S(C)(=O)=O)cc3)n2)n1C(C)C
In short: as §1

[8] = compound: Cn1cc(-c2ccc3c(c2)CCN3C(=O)Cc2cccc(C(F)(F)F)c2)c2c(N)ncnc21
In short: as §1

[9] = compound: Cn1cc(-c2ccc3nnc(C(F)(F)c4ccc5ncccc5c4)n3n2)cn1
In short: as §1

tipifarnib = compound: Cn1cncc1[C@@](N)(c1ccc(Cl)cc1)c1ccc2c(c1)c(-c1cccc(Cl)c1)cc(=O)n2C [tipifarnib]
In short: as §1

mubritinib = compound: FC(F)(F)c1ccc(/C=C/c2nc(COc3ccc(CCCCn4ccnn4)cc3)co2)cc1 [mubritinib]
In short: as §1

Measured: log2 fold change

DPF2 (UniProt Q92785)
inactive: [1] 0.028 | crizotinib -0.004 | [2] -0.017 | [3] -0.02 | duvelisib -0.056 | gandotinib -0.05 | tozasertib -0.021 | [4] -0.018 | doramapimod 0.013 | ispinesib 0.026 | bafetinib -0.042 | [5] 0.009 | nilotinib 0 | [6] -0.019 | dasatinib 0.054 | [7] -0.09 | [8] 0.007 | [9] -0.014 | tipifarnib 0.05 | mubritinib 0.033

EBAG9 isoform 2 (UniProt O00559)
inactive: [1] 0.079 | crizotinib 0.022 | [2] -0.044 | [3] -0.073 | duvelisib 0.019 | gandotinib -0.024 | tozasertib 0.023 | [4] -0.091 | doramapimod 0.041 | ispinesib -0.037 | bafetinib -0.046 | [5] -0.109 | nilotinib 0.057 | [6] 0.006 | dasatinib 0.03 | [7] 0.005 | [8] 0.018 | [9] -0.144 | tipifarnib 0.005 | mubritinib 0.045

DUSP3 (UniProt P51452)
inactive: [1] 0.056 | crizotinib 0.061 | [2] 0.06 | [3] -0.107 | duvelisib 0.067 | gandotinib -0.064 | tozasertib 0.016 | [4] 0.074 | doramapimod 0.005 | ispinesib 0.045 | bafetinib -0.005 | [5] -0.025 | nilotinib -0.002 | [6] -0.149 | dasatinib -0.054 | [7] 0.018 | [8] 0.047 | [9] -0.001 | tipifarnib -0.038 | mubritinib -0.003

DUSP12 (UniProt Q9UNI6)
inactive: [1] 0.085 | crizotinib -0.168 | [2] 0.158 | [3] -0.019 | duvelisib 0.029 | gandotinib 0.095 | tozasertib 0.039 | [4] 0.06 | doramapimod 0.047 | ispinesib 0.05 | bafetinib -0.016 | [5] -0.079 | nilotinib 0.03 | [6] -0.03 | dasatinib -0.027 | [7] -0.006 | [8] 0.006 | [9] 0.002 | tipifarnib -0.045 | mubritinib 0.039

DNAJB4 (UniProt Q9UDY4)
inactive: [1] 0.031 | crizotinib 0.006 | [2] 0.049 | [3] -0.013 | duvelisib 0.023 | gandotinib -0.001 | tozasertib -0.037 | [4] 0.052 | doramapimod -0.02 | ispinesib -0.051 | bafetinib -0.023 | [5] 0.046 | nilotinib -0.035 | [6] -0.044 | dasatinib -0.044 | [7] -0.007 | [8] 0.033 | [9] 0.028 | tipifarnib -0.098 | mubritinib 0.031

Quoted from above (three entries):
EBAG9 isoform 2 (UniProt O00559)
inactive: [1] 0.079 | crizotinib 0.022 | [2] -0.044 | [3] -0.073 | duvelisib 0.019 | gandotinib -0.024 | tozasertib 0.023 | [4] -0.091 | doramapimod 0.041 | ispinesib -0.037 | bafetinib -0.046 | [5] -0.109 | nilotinib 0.057 | [6] 0.006 | dasatinib 0.03 | [7] 0.005 | [8] 0.018 | [9] -0.144 | tipifarnib 0.005 | mubritinib 0.045

DUSP3 (UniProt P51452)
inactive: [1] 0.056 | crizotinib 0.061 | [2] 0.06 | [3] -0.107 | duvelisib 0.067 | gandotinib -0.064 | tozasertib 0.016 | [4] 0.074 | doramapimod 0.005 | ispinesib 0.045 | bafetinib -0.005 | [5] -0.025 | nilotinib -0.002 | [6] -0.149 | dasatinib -0.054 | [7] 0.018 | [8] 0.047 | [9] -0.001 | tipifarnib -0.038 | mubritinib -0.003

DUSP12 (UniProt Q9UNI6)
inactive: [1] 0.085 | crizotinib -0.168 | [2] 0.158 | [3] -0.019 | duvelisib 0.029 | gandotinib 0.095 | tozasertib 0.039 | [4] 0.06 | doramapimod 0.047 | ispinesib 0.05 | bafetinib -0.016 | [5] -0.079 | nilotinib 0.03 | [6] -0.03 | dasatinib -0.027 | [7] -0.006 | [8] 0.006 | [9] 0.002 | tipifarnib -0.045 | mubritinib 0.039

(next part)

EDEM3 (UniProt Q9BZQ6)
inactive: [1] 0.025 | crizotinib 0.027 | [2] -0.067 | [3] 0.089 | duvelisib -0.001 | gandotinib 0.053 | tozasertib 0.03 | [4] 0.039 | doramapimod 0.013 | ispinesib -0.008 | bafetinib 0.048 | [5] 0.017 | nilotinib 0.021 | [6] 0.037 | dasatinib 0.044 | [7] -0.067 | [8] -0.097 | [9] -0.031 | tipifarnib 0.016 | mubritinib 0.001

ECHDC1 (UniProt Q9NTX5)
inactive: [1] 0.013 | crizotinib 0.018 | [2] 0.037 | [3] -0.029 | duvelisib 0.022 | gandotinib 0.086 | tozasertib -0.026 | [4] -0.029 | doramapimod -0.021 | ispinesib 0.055 | bafetinib -0.054 | [5] -0.066 | nilotinib 0.026 | [6] 0.016 | dasatinib 0.053 | [7] -0.005 | [8] 0.004 | [9] 0.048 | tipifarnib 0.041 | mubritinib 0.034

DPAGT1 (UniProt Q9H3H5)
inactive: [1] -0.003 | crizotinib 0.072 | [2] -0.024 | [3] -0.193 | duvelisib 0.085 | gandotinib 0.013 | tozasertib 0.06 | [4] -0.1 | doramapimod -0.041 | ispinesib 0.043 | bafetinib -0.004 | [5] -0.046 | nilotinib 0.007 | [6] 0.075 | dasatinib -0.05 | [7] -0.069 | [8] 0.044 | [9] 0.038 | tipifarnib 0.056 | mubritinib 0.043

DPY19L3 (UniProt Q6ZPD9)
inactive: [1] -0.02 | crizotinib 0.087 | [2] -0.15 | [3] -0.07 | duvelisib 0.058 | gandotinib -0.046 | tozasertib 0.022 | [4] -0.015 | doramapimod 0.056 | ispinesib -0.295 | bafetinib -0.07 | [5] 0.019 | nilotinib -0.043 | [6] -0.068 | dasatinib 0.109 | [7] -0.18 | [8] -0.066 | [9] 0.072 | tipifarnib 0.082 | mubritinib -0.047

DNPH1 (UniProt O43598)
inactive: [1] 0.049 | crizotinib 0.021 | [2] -0.099 | [3] -0.045 | duvelisib 0 | gandotinib 0.042 | tozasertib -0.006 | [4] 0.019 | doramapimod -0.042 | ispinesib 0.12 | bafetinib -0.028 | [5] 0 | nilotinib 0.024 | [6] -0.012 | dasatinib -0.01 | [7] 0.056 | [8] 0.056 | [9] 0.008 | tipifarnib 0.02 | mubritinib 0.008

DSTN (UniProt P60981)
inactive: [1] 0.05 | crizotinib 0.041 | [2] 0.029 | [3] -0.051 | duvelisib 0.029 | gandotinib 0.013 | tozasertib 0.035 | [4] 0.028 | doramapimod -0.017 | ispinesib 0.085 | bafetinib -0.026 | [5] -0.013 | nilotinib 0.077 | [6] -0.022 | dasatinib 0.023 | [7] 0.012 | [8] 0.077 | [9] -0.008 | tipifarnib -0.038 | mubritinib 0.067

DOCK9 isoform 4 (UniProt Q9BZ29)
inactive: [1] 0.074 | crizotinib -0.002 | [2] -0.05 | [3] 0.121 | duvelisib 0.089 | gandotinib 0.087 | tozasertib 0.083 | [4] 0.014 | doramapimod -0.002 | ispinesib -0.056 | bafetinib 0.012 | [5] 0.113 | nilotinib -0.085 | [6] 0.03 | dasatinib -0.23 | [7] 0.007 | [8] -0.001 | [9] -0.025 | tipifarnib -0.092 | mubritinib 0.064

DNAJB11 (UniProt Q9UBS4)
inactive: [1] 0.009 | crizotinib 0.029 | [2] -0.014 | [3] 0.094 | duvelisib 0.002 | gandotinib 0.022 | tozasertib -0.002 | [4] -0.011 | doramapimod 0.022 | ispinesib -0.018 | bafetinib -0.063 | [5] -0.088 | nilotinib 0.005 | [6] 0.018 | dasatinib 0.01 | [7] -0.015 | [8] -0.067 | [9] 0.018 | tipifarnib 0.037 | mubritinib 0.003

DR1 (UniProt Q01658)
inactive: [1] 0.025 | crizotinib 0.089 | [2] 0.051 | [3] -0.017 | duvelisib 0.062 | gandotinib -0.072 | tozasertib -0.003 | [4] 0.011 | doramapimod -0.037 | ispinesib 0.026 | bafetinib 0.028 | [5] 0.039 | nilotinib -0.001 | [6] 0.03 | dasatinib 0.052 | [7] -0.017 | [8] 0.014 | [9] -0.006 | tipifarnib -0.054 | mubritinib -0.021

DYNLL1 (UniProt P63167)
inactive: [1] 0.07 | crizotinib 0.128 | [2] 0.066 | [3] -0.056 | duvelisib 0 | gandotinib 0.074 | tozasertib 0.05 | [4] 0.005 | doramapimod -0.052 | ispinesib 0.104 | bafetinib -0.035 | [5] 0.032 | nilotinib 0.088 | [6] -0.097 | dasatinib 0.01 | [7] 0.025 | [8] 0.135 | [9] 0.13 | tipifarnib -0.026 | mubritinib -0.051

DUS4L (UniProt O95620)
inactive: [1] 0.127 | crizotinib 0.007 | [2] 0.213 | [3] -0.006 | duvelisib 0.029 | gandotinib 0.141 | tozasertib 0.035 | [4] 0.04 | doramapimod -0.041 | ispinesib 0.068 | bafetinib -0.121 | [5] -0.03 | nilotinib -0.02 | [6] 0.053 | dasatinib -0.026 | [7] -0.019 | [8] 0 | [9] 0.014 | tipifarnib 0.065 | mubritinib 0.053

Source: the supplement of paper PMC10849652
